Source: PubChem BioAssay AID2685 (National Center for Advancing Translational Sciences (NCATS), 2010)
The other results are listed elsewhere or left out. The main result of the screen is listed elsewhere. These columns were measured beside it and carry no call. Most of these compounds were active or inconclusive in the main read-out, so they are no random draw. Words in brackets tell the shape of the fitted curve; partial curves, single points and poor fits give uncertain potencies.

Test: qHTS Assay for Lipid Storage Modulators in Drosophila S3 Cells;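 as to cell number change: cells counted by Cell Tracker Red CMTPX staining in the red channel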
Conditions: BODIPY lipid droplet fluorescence, 18-24 h; for cell number change: measured here: cell count max response, cells fed with added oleic acid
Method in brief: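 Drosophila S3 cells loaded with oleic acid (400 uM, as added) and compounds at several concentrations; lipid droplets imaged by 488-nm laser-scanning cytometry, 500–530 nm intensity and object ratio to cell channel. Percent activity normalized to 20 uM Triacsin C.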

[1] = measured here: lipid fluorescence (Fed channel) AC50, cells fed with added oleic acid
[2] = measured here: cell number channel AC50, cells fed with added oleic acid

SMILES	cell number change [%]	AC50 [1]	AC50 [2]
Cc1cc(C)c2nc(N(CCN(C)C)C(=O)c3ccc4ccccc4c3)sc2c1	11	16.4 µM [rising, partial curve]	–
CNC(=O)NC(=O)C(C)OC(=O)CCCc1nc2ccccc2s1 (configuration not stated)	-20.6	–	–
O=S(=O)(NCC1CCCO1)c1cnc(Cl)c(Cl)c1 (configuration not stated)	-18.8	–	0.58 µM [falling, full curve, poor fit]
c1ccc2[nH]c(SCCN3CCOCC3)nc2c1	14.1	–	–
C=CCn1c(SCC(=O)NC(=O)NCc2ccco2)nc2sc(C)c(C)c2c1=O	-69	29.1 µM [falling, single point]	23.1 µM [falling, partial curve]
COc1ccc(N2CCN(C(=O)CCCn3c(=S)[nH]c4cc5c(cc4c3=O)OCO5)CC2)cc1	-15.1	1.64 µM [rising, partial curve]	0.326 µM [rising, partial curve]
COc1cc(C(=O)NC(C)c2cc(C)ccc2C)ccc1OCC(=O)N1CCOCC1 (configuration not stated)	11.7	29.1 µM [rising, single point]	–
Cc1ccc(NC(=S)NNC(=O)c2ccc(N3CCOCC3)c([N+](=O)[O-])c2)cc1C	-8.48	–	–
CC(C)NC(=O)CSc1nc2ccccc2n1CC(=O)N1CCc2ccccc21	80.1	0.461 µM [rising, partial curve]	6.51 µM [rising, partial curve, poor fit]
CCc1cc2cccc(C)c2nc1SCC(=O)NC1CCCC1	3.04	–	–
Cc1ccc(O)c(NC(=O)Cc2ccc3ccccc3c2)c1	-10.7	–	–
O=C(COC(=O)C1CC2CCCC(C1)C2=O)Nc1cccc(F)c1 (configuration not stated)	-0.497	0.146 µM [falling, full curve, poor fit]	–
Cn1ccsc1=NC(=O)c1ccccc1F	3.64	–	0.00461 µM [falling, full curve, poor fit]
COc1ccc(NC(=O)c2cc(C)nc3ccccc23)c(OC)c1	-65.2	–	–
Cc1occc1-c1nnc(SCC(=O)Nc2ccccc2)n1CCc1ccccc1	–	0.13 µM [rising, full curve, poor fit]	0.146 µM [rising, full curve, poor fit]
Cc1ccccc1CS(=O)(=O)Cc1ccc(C(=O)NCCCN2CCOCC2)o1	-67.8	–	1.64 µM [falling, partial curve]
Cc1nn(C)cc1/C=C1\SC(=S)NC1=O	–	0.291 µM [rising, partial curve, poor fit]	–
O=C(CN(C(=O)C1CSC(=O)C1)c1ccc(F)cc1)NCc1ccc2c(c1)OCO2 (configuration not stated)	8.33	–	–
COc1ccc(CNC(=O)CNC(=O)c2ccc(C(C)(C)C)cc2)cc1OC	-2.78	6.51 µM [falling, single point]	–
O=C(CCNC(=O)c1ccc(Br)cc1)Nc1ccc(S(=O)(=O)N2CCCCC2)cc1	-0.427	4.61 µM [falling, single point]	–

SMILES	cell number change [%]	AC50 [1]	AC50 [2]
CC(c1ccccc1)N1CCn2c(nc3cc(NC(=O)NC4CCCCC4)ccc32)C1 (configuration not stated)	1.85	6.51 µM [rising, single point]	1.03 µM [rising, partial curve]
CC(=O)Nc1nnc(SCC(=O)N2CCc3ccccc32)s1	5.71	–	–
FC(F)(F)c1ccc(NC(=S)NC2CCCCC2)cc1	-52.5	–	1.64 µM [falling, partial curve]
O=C(Cc1ccccc1)Nc1ccc(NC(=O)c2ccccc2)c(Cl)c1	-14.4	–	–
Cc1cc(/C=C2\SC(=S)NC2=O)c(C)n1C	-3.07	25.9 µM [rising, partial curve, poor fit]	–
Cc1cccc(C(=O)Oc2cccc3c(O)cccc23)c1	-48.1	4.11 µM [rising, partial curve, poor fit]	18.4 µM [falling, single point]
Cn1c(=O)c2c(nc(Br)n2CCc2ccccc2)n(C)c1=O	-19.4	–	–
CCCCCCN(C(=O)CCCCCN1C(=O)NC(c2ccc(-c3ccccc3)cc2)C(C(=O)OCc2ccccc2)=C1C)C(C(=O)NCCCC)C1CCCCC1 (configuration not stated)	-1.91	3.66 µM [falling, single point]	–
CC(C(=O)NC1CCS(=O)(=O)C1)N1C(=O)/C(=C/c2ccc(Cl)cc2)SC1=S (configuration not stated)	–	18.4 µM [falling, partial curve]	–
N#Cc1c(F)cccc1NCc1cccs1	27.8	–	3.26 µM [rising, full curve, poor fit]
CN(Cc1ccccc1)S(=O)(=O)c1ccc(Cl)nc1	0.983	–	–
CC1CCN(c2cc(N3CCOCC3)c(F)cc2[N+](=O)[O-])CC1	-11.8	9.2 µM [falling, partial curve, poor fit]	–
CCCCCCC(C)n1[nH]c(=O)cc1N (configuration not stated)	-14.1	0.058 µM [falling, full curve, poor fit]	1.3 µM [falling, full curve, poor fit]
Cc1cc(S(=O)(=O)N2CCOCC2)ccc1OCC(=O)N1CCOCC1	25.6	29.1 µM [falling, single point]	0.184 µM [rising, full curve, poor fit]
COc1ccc(CCn2cnc(=O)c(C#N)c2C)cc1OC	41.8	–	23.1 µM [rising, single point]
CCOC(=O)CN(C(=O)CSc1nnc2c(n1)[nH]c1c(C)cc(C)cc12)c1ccccc1	-8.65	2.06 µM [falling, partial curve]	0.13 µM [falling, full curve, poor fit]
Cc1ccc(C)c(S(=O)(=O)N2CCN(C(=O)c3cncc(Br)c3)CC2)c1	16.2	29.1 µM [rising, single point]	–
C/C(=C\c1ccccc1)C1Nc2cccc3cccc(c23)N1	-5.78	16.4 µM [rising, single point]	–
Cc1cc(C(=O)NCc2cc(C(=O)O)co2)co1	-17.4	–	–
C[C@@H](NC(=O)Cn1ccc(NC(=O)OCc2ccccc2)nc1=O)c1cccc2ccccc12	6.81	0.58 µM [falling, single point]	–

SMILES	cell number change [%]	AC50 [1]	AC50 [2]
OC(CNCc1cccs1)c1ccccc1 (configuration not stated)	-4.27	0.651 µM [falling, full curve, poor fit]	0.146 µM [falling, full curve, poor fit]
O=C(Cc1ccccc1)NNS(=O)(=O)c1ccc([N+](=O)[O-])cc1	–	13 µM [falling, single point]	–
Cc1cccc2cc(CN(CC3CCCO3)C(=O)c3cnccn3)c(=O)[nH]c12 (configuration not stated)	–	0.517 µM [rising, full curve]	1.64 µM [rising, partial curve]
O=C(c1ccoc1)N1CCC2(CC1)Oc1ccc(F)cc1C(=O)C21CC(c2ccccc2)=NO1 (configuration not stated)	13.2	3.66 µM [rising, full curve]	–
CCOC(=O)C1CCN(C(=O)c2ccc(Br)o2)CC1	–	0.58 µM [falling, single point]	0.58 µM [falling, single point]
CC1Cc2ccccc2N1C(=O)CSc1nnc(-c2ccc(S(=O)(=O)N3CCCCC3)cc2)o1 (configuration not stated)	-23.8	0.58 µM [falling, single point]	6.51 µM [falling, single point]
COc1cccc(-n2nnnc2SCC(=O)NCCc2ccc(OC)c(OC)c2)c1	-50.6	3.66 µM [falling, partial curve]	14.6 µM [falling, partial curve, poor fit]
CC(C)(C)c1ccc(NS(=O)(=O)c2ccc(N)cc2)cc1	-35.6	20.6 µM [falling, partial curve, poor fit]	23.1 µM [falling, single point]
CCSc1nc(-c2ccccc2)c(-c2ccccc2)n1CC(O)CO (configuration not stated)	-102	23.1 µM [falling, partial curve]	23.1 µM [falling, partial curve]
Cc1ccc(NC(=O)C2C3CCC(O3)C2C(=O)O)cc1Cl (configuration not stated)	-1.59	29.1 µM [rising, single point]	–
CCNc1ccccc1C(=O)O	-12.4	3.26 µM [falling, full curve, poor fit]	–
COc1ccc(Nc2cc(C)nc3ncnn23)cc1Cl	-48.4	–	16.4 µM [falling, partial curve, poor fit]
N#Cc1cc(C(=O)Cc2ccccc2)c[nH]1	-22.4	0.731 µM [rising, single point]	–
Cc1ccc(OCC(=O)NC(=S)Nc2ccc(S(=O)(=O)Nc3cc(C)on3)cc2)c(Br)c1	-14	32.6 µM [falling, single point]	–
Clc1c(-c2ccccc2)nc2ccccn12	28.1	29.1 µM [falling, single point]	0.13 µM [rising, full curve, poor fit]
CN(C)CCCN1C(=O)C(=O)/C(=C(/O)c2ccccc2)C1c1ccccn1 (configuration not stated)	-3.77	0.259 µM [falling, full curve]	–
C=CCc1cccc2cc(C(=O)NC3CCCC3)c(=O)oc12	66.9	16.4 µM [rising, partial curve]	8.2 µM [rising, partial curve]
O=C(NCc1ccccc1)c1ccc(-c2ccc(F)cc2)o1	21.5	10.3 µM [rising, partial curve]	0.92 µM [rising, full curve, poor fit]

Taken from above:
`CN(C)CCCN1C(=O)C(=O)/C(=C(/O)c2ccccc2)C1c1ccccn1` (configuration not stated) | AC50 [1]: 0.259 µM [falling, full curve]
`O=C(c1ccoc1)N1CCC2(CC1)Oc1ccc(F)cc1C(=O)C21CC(c2ccccc2)=NO1` (configuration not stated) | AC50 [1]: 3.66 µM [rising, full curve]
`C=CCc1cccc2cc(C(=O)NC3CCCC3)c(=O)oc12` | AC50 [2]: 8.2 µM [rising, partial curve]
